Measurements published in PubChem BioAssay AID1671190 (National Center for Advancing Translational Sciences (NCATS), 2021).
Where “and” joins values, the source holds several entries; their conditions need not be identical. Equal values may be shown once. In all, about 580,000 compounds went through this assay and about 6,100 (1.1%) were called active. This list was built around the results that the source calls inconclusive (neither active nor inactive); the mix of calls is not that of the screen. The call rests on the fitted dose curve; in most records, active means well fitted inhibition curve with a large enough effect; inconclusive means small, poorly fitted or top-dose-only effect, or another doubt; inactive means no such curve, though single readings can be large or run the other way. Potencies beside an inconclusive call are fits to weak or partial responses and may not hold up.
Potency means the concentration at half of the fitted maximal effect.

Protein sequences, listed by entry. Tags and fused reporters are not part of them. Lines headed by an entry give the natural chain unless they say otherwise; changes in a name come on top.
UniProt P18054: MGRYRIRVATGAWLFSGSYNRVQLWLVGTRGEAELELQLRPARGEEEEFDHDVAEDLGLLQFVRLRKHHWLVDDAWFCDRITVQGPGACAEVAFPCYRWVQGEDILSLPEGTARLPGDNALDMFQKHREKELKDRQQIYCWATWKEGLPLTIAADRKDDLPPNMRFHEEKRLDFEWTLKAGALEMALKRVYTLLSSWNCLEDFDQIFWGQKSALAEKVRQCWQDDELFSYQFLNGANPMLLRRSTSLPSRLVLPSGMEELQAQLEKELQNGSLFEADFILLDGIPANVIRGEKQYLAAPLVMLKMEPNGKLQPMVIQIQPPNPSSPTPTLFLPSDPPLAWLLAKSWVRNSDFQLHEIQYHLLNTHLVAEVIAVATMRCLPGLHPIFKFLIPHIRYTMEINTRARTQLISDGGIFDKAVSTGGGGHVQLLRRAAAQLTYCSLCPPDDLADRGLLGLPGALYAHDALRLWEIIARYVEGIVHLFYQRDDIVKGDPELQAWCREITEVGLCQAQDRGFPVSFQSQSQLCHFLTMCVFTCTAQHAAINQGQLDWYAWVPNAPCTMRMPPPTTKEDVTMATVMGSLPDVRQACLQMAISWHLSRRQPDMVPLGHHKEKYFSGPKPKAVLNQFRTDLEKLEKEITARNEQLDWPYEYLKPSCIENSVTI

These compounds were tested against Polyunsaturated fatty acid lipoxygenase ALOX12 (Homo sapiens) (UniProt P18054) (assay: Primary qHTS assay for inhibitors of human arachidonate 12S-lipoxygenase (ALOX12): Round 2). Settings: purified 12hLO, xylenol orange hydroperoxide absorbance; series mostly up to 108 µM.
Method in brief: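 Purified human 12hLO (150 nM final) in 25 mM Hepes, 0.01% Triton X-100, pH 7.0 was preincubated 15 min at room temperature with compound. Then 40 uM arachidonic acid was added, 30 min. Hydroperoxide was read by Fe-XO absorbance ratio 573/405 nm.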
CN(C)S(=O)(=O)c1ccccc1CNS(=O)(=O)c1ccc2c(c1)CCCC2 was tested, and the Potency was inconclusive: 10 µM [inhibitor, full curve]. In the case of Cc1nc2sc(C(c3ccco3)N3CC(C)OC(C)C3)c(O)n2n1 (stereo not given), the Potency is reported as “inactive”. With NNc1nc(-c2ccccc2)cc(-c2ccccc2)n1 the Potency was “inactive”. With Cc1cccc(CN(C)CCc2ccccn2)c1 the Potency was inconclusive: 0.112 µM [inhibitor, full curve, poor fit]. In the case of CN1CCc2c(sc3c2c(=O)n(-c2ccccc2)c2nnc(SCc4ccc(Cl)cc4)n32)C1, the Potency is reported as “inactive”. In the case of O=S(=O)(Nc1ccc2nc(-c3ccc(F)cc3)oc2c1)c1ccccc1, the Potency is reported as inconclusive: 112 µM [inhibitor, partial curve, poor fit]. For COc1ccc(NC(=O)NCC2CCN(CCc3ccc(F)cc3)CC2)cc1OC, the Potency was inconclusive: 100 µM [inhibitor, partial curve, poor fit]. For COc1ccc(-n2cccc2/C=C2/NC(=O)N(c3cccc(Cl)c3)C2=O)cc1, the Potency was inconclusive: 44.7 µM [inhibitor, partial curve, poor fit]. Oc1ccc(/C=C/c2ccc3cccc(O)c3n2)cc1Br was tested, and the Potency was inconclusive: 35.5 µM [inhibitor, single point]. For O=C(Nc1nc(-c2ccc(Cl)s2)cs1)c1ccccc1, the Potency was “inactive”. With FC(F)(F)c1ccc(/C=N/Nc2ccccc2Cl)cc1 the Potency was inconclusive: 22.4 µM [inhibitor, partial curve, poor fit]. For CC(C)[N+](C)(C)CC(O)CN(c1ccccc1)c1ccccc1 (stereo not given), the Potency was inconclusive: 35.5 µM [inhibitor, partial curve]. For CCCCn1c(N)c(N(CCC(C)C)C(=O)C(C)N2C(=O)c3ccccc3C2=O)c(=O)[nH]c1=O (stereo not given), the Potency was inconclusive: 50.1 µM [inhibitor, partial curve, poor fit]. CCN(CC)CCNc1nc(-c2cccs2)c(CC(=O)O)s1 was tested, and the Potency was inconclusive: 44.7 µM [inhibitor, partial curve, poor fit]. In the case of CNC1CCc2nnc(C)n2CC1 (stereo not given), the Potency is reported as inconclusive: 3.16 µM [inhibitor, partial curve, poor fit]. COc1ccc(-n2cc(C(=O)OCc3ccc(F)c(F)c3)c3ccccc3c2=O)cc1 was tested, and the Potency was inconclusive: 126 µM [inhibitor, partial curve, poor fit]. With CCOC(=O)C(C#N)=C1SC(C(=O)OCC)C(C(=O)OCC)S1 (stereo not given) the Potency was inconclusive: 15.8 µM [inhibitor, full curve, poor fit]. With FC(F)(F)c1ccc(C2Nc3cccc4cccc(c34)N2)cc1 the Potency was inconclusive: 7.94 µM [inhibitor, partial curve, poor fit]. With Cc1ccc2c(c1)C(=O)C(=O)N2Cc1ccc(Br)cc1 the Potency was inconclusive: 39.8 µM [inhibitor, partial curve, poor fit]. With Cc1cc2oc(C(=O)NCC(c3ccco3)N3CCCCC3)cc(=O)c2cc1C (stereo not given) the Potency was inconclusive: 31.6 µM [inhibitor, partial curve, poor fit]. COc1ccc2cc(C(C)C(=O)Nc3cccc(S(=O)(=O)N(C)C)c3)ccc2c1 (stereo not given) was tested, and the Potency was inconclusive: 100 µM [inhibitor, partial curve, poor fit]. COc1ccc(C(=O)N2CCN(c3cc(C(F)(F)F)ncn3)CC2)cc1OC was tested, and the Potency was “inactive”. CC(C)C(NC(=O)c1ccc(F)cc1)C(=O)NN (stereo not given) was tested, and the Potency was “inactive”. In the case of S=c1nc(-c2cccc(Br)c2)[nH][nH]1, the Potency is reported as inconclusive: 8.91 µM [inhibitor, full curve, poor fit]. COc1ccc(OC)c(S(=O)(=O)n2nc(C)cc2C)c1 was tested, and the Potency was inconclusive: 0.282 µM [inhibitor, full curve, poor fit]. O=C1NC(c2ccccc2)=N/C1=C/c1ccco1 was tested, and the Potency was inconclusive: 44.7 µM [inhibitor, partial curve, poor fit]. For Cn1cccc1/C=C1\CC(C(C)(C)C)C/C(=C\c2cccn2C)C1=O (stereo not given), the Potency was inconclusive: 44.7 µM [inhibitor, partial curve, poor fit]. With CCCN(C)C(=O)c1cn2cc(-c3cccc(Cl)c3)n(CC=C(C)C)c(=O)c2n1 the Potency was “inactive”. For CN(CC(=O)Nc1ccc(Cl)cc1)Cc1ncc(-c2ccc(F)cc2)o1, the Potency was inconclusive: 63.1 µM [inhibitor, partial curve, poor fit]. CCOc1ccc(CCNC(=O)Cn2ncn3c(cc4sc(C)cc43)c2=O)cc1OCC was tested, and the Potency was inconclusive: 25.1 µM [inhibitor, partial curve, poor fit]. For Cc1occc1C(=O)NNC(=S)NC(=O)COc1ccc(Cl)cc1Cl, the Potency was inconclusive: 3.98 µM [inhibitor, full curve, poor fit]. For COc1cccc(-c2cncnc2NCc2cccs2)c1, the Potency was inconclusive: 39.8 µM [inhibitor, partial curve, poor fit]. In the case of Fc1ccc(-n2[nH]nnc2=S)cc1N1CCCC1, the Potency is reported as active: 8.91 µM. In the case of Cc1ccccc1Nc1nc(N)nc(CSc2nc3ccccc3c(=O)n2CCCO)n1, the Potency is reported as “inactive”. For CC(C)Cn1ccc2c(NC(=O)C[C@H]3NC(=O)c4ccccc4NC3=O)cccc21, the Potency was inconclusive: 39.8 µM [inhibitor, partial curve]. Cc1ccc(CN2CCC(C)(Oc3ccc(Cl)cc3)C2)cc1 (stereo not given) was tested, and the Potency was inconclusive: 50.1 µM [inhibitor, partial curve, poor fit]. CC(C)(C)n1nnnc1SCc1csc(Nc2ccccc2)n1 was tested, and the Potency was inconclusive: 7.08 µM [inhibitor, full curve]. In the case of O=c1cc(CN2CCN(Cc3ccccc3)CC2)c2cc(O)c(-c3ccccc3)cc2o1, the Potency is reported as inconclusive: 50.1 µM [inhibitor, partial curve, poor fit] and inconclusive: 44.7 µM [inhibitor, partial curve, poor fit]. In the case of COc1cc(C(=O)/C=C/c2cccc(OC(C)C(=O)O)c2)ccc1O (stereo not given), the Potency is reported as inconclusive: 35.5 µM [inhibitor, single point]. For O=C1Nc2ccccc2CN(CC2CCCC2)C12CCNC2 (stereo not given), the Potency was inconclusive: 10 µM [inhibitor, full curve].
